Consider four compounds from publication PMC11677126, “Synthesis and Structure–Activity Relationship of Thiourea Derivatives Against Leishmania amazonensis” (Pharmaceuticals, 2024).

The test system of this series is L. amazonensis intracellular amastigotes. In words: Antiamastigote assay in infected peritoneal macrophages (infection index). It counts as cell-based, Leishmania amazonensis. As to conditions: selectivity index, macrophage CC50 versus amastigote IC50. The method, then:
Resident macrophages from BALB/c mice were obtained by peritoneal lavage with 5 mL of cold RPMI medium. The cell suspension was adjusted to a 2 × 10^6 cells/mL concentration and plated in LAB-TEK chambers. After 1 h, the cultures were washed with phosphate-buffered saline at 37 °C to remove non-adherent cells. The remaining cells were incubated at 37 °C/5% CO2 with promastigotes of L. amazonensis at a ratio of 3:1. After 3 h, the chambers were rewashed to remove free parasites. […] For G2, we first tested only at a concentration of 10 µM, and derivatives with inhibition above 60% were evaluated using the dose–response curve. The antiamastigote activity was evaluated microscopically after staining the chambers with the Instant Prov hematological dye system (Newprov, Curitiba, Brazil); at least 100 macrophages were counted per sample. The results were expressed as the infection index (IF) using the following formula: IF = % infected cells X (number of amastigotes/total macrophages). The IC50 value was determined by nonlinear regression using Graph Pad Prism 9.0.

Take `S=C(Nc1ccccc1)Nc1ccccn1` [Thiourea 3d]: the SI (G1 thioureas) is over 37.

For `S=C(Nc1ccccc1)Nc1ccc(Br)cc1` [Thiourea 3p], where the note is “G1 thioureas”, the SI is listed as over 45.9. For the setting “G2 piperazine thioureas”, `S=C(NCc1ccccc1)N1CCN(C(c2ccccc2)c2ccccc2)CC1` [Thiourea 5h] displayed an SI of over 14.2. Still for that read-out and setting: with `COc1cc(NC(=S)N2CCN(C(c3ccccc3)c3ccccc3)CC2)cc(OC)c1OC` [Thiourea 5t] the figure was 16.6.
